Assay [1] addresses DNA-binding domain (DBD) of human heat shock factor 2 (HSF2), residues 7-112 (human) (UniProt Q03933). The assay can be described thus: crystal structure; DBD co-crystallised with a blunt-ended two-site head-to-head HSE DNA duplex (12 bp for HSF2, 14 bp for HSF1); protein:DNA molar ratio 2:1.5; hanging drop, 20°C; two DBD copies on one DNA duplex; both purified.
Assay [2] deals with DNA-binding domain (DBD) of human heat shock factor 1 (HSF1), residues 15-120 (human) (UniProt Q00613). The assay is described as above.

Sequences of proteins named here, by UniProt entry; tags and fusion partners are left off. Residues count along the entry.
UniProt Q03933, residues 7-112: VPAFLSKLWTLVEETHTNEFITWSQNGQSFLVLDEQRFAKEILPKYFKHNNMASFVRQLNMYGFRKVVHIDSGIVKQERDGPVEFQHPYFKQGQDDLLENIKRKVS
UniProt Q00613, residues 15-120: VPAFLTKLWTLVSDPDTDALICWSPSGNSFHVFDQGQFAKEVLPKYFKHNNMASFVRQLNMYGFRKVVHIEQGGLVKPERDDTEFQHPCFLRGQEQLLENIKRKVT

These are yes or no findings as the source states them, for the method shown. Some binding calls cover weakened binding; strength is not graded here.

In the case of “DNA-binding domain (DBD) of human heat shock factor 2 (HSF2), residues 7-112 (from UniProt Q03933 7-112) (domain or fragment)”, the binding entry in assay [1] is recorded as “binds weakly”.
For the substance “DNA-binding domain (DBD) of human heat shock factor 1 (HSF1), residues 15-120 (from UniProt Q00613 15-120) (domain or fragment)”, the binding entry in assay [2] is on record as “binds weakly”.

The values are drawn from publication PMC8379338, “Structures of heat shock factor trimers bound to DNA” (iScience, 2021).
